Measurements from publication PMC11905138.

Sequences of proteins named here, by UniProt entry; tags and fusion partners are left off. A change or cut given only in a name is not applied to a line headed by its entry.
UniProt P14618: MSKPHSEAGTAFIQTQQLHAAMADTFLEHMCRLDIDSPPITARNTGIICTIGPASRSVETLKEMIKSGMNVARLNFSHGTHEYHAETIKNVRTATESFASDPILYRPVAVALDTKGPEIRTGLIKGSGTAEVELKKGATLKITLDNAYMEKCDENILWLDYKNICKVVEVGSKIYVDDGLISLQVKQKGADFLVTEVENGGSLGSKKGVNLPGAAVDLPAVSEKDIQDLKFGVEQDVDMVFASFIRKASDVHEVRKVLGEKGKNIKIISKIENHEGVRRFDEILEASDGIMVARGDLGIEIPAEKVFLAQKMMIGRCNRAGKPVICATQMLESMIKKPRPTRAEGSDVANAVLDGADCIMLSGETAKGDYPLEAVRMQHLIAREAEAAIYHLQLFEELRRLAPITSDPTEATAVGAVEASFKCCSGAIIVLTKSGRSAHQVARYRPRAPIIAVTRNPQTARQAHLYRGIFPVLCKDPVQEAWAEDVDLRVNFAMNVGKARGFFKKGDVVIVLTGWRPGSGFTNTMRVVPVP
UniProt P46940: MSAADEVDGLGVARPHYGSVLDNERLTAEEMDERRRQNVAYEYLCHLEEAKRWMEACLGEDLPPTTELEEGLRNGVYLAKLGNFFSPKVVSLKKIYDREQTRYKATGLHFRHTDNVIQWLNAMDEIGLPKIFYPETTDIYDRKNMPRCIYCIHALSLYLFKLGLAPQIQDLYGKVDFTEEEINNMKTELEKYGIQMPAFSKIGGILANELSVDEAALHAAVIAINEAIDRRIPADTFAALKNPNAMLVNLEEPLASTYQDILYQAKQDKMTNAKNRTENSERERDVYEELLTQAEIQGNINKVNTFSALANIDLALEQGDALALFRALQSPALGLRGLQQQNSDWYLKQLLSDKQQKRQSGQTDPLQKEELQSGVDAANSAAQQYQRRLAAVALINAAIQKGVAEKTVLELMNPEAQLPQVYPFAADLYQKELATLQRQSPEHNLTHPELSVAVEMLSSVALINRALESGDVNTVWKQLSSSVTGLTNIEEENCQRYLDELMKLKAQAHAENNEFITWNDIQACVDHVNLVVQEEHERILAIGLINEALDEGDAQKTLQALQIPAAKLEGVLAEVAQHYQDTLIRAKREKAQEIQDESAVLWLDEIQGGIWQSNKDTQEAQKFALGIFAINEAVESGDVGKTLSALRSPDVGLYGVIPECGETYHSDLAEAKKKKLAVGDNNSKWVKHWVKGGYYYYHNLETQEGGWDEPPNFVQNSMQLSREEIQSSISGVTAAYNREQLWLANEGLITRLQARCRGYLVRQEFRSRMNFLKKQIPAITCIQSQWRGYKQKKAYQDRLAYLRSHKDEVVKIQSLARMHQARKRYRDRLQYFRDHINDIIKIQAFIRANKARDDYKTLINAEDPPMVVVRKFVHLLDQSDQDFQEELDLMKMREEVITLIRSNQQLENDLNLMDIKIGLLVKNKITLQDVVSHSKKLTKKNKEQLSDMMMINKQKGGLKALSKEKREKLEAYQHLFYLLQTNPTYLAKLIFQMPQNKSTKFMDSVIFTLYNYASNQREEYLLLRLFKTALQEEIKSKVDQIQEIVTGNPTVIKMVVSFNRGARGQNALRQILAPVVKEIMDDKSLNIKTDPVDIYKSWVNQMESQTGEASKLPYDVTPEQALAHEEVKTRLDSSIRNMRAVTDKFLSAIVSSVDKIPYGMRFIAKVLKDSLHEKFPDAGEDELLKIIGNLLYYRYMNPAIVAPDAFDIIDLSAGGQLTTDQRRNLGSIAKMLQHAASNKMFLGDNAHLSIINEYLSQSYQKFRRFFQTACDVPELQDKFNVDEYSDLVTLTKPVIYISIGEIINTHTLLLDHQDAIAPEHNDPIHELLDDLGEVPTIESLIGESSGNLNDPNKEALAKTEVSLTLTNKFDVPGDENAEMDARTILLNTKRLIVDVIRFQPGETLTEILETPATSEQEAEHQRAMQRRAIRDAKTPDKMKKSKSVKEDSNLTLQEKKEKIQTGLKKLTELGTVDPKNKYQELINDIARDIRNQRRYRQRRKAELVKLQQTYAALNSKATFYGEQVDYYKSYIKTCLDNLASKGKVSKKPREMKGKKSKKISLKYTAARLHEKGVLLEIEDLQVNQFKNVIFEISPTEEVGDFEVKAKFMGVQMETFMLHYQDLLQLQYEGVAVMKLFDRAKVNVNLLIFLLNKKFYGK

Experiments:
[1] = target: Flag-PKM2^WT (wild-type pyruvate kinase M2, phosphorylated at Y105 in the cells) (UniProt P14618); assay: affinity purification with mass spectrometry; anti-Flag magnetic beads on RIPA lysates of A549-PKM2^WT and A549-PKM2^Y105F cells; LC-MS/MS of the precipitated complexes
[2] = target: Flag-PKM2^Y105F (non-phosphorylatable mutant of pyruvate kinase M2) (UniProt P14618); assay: as above

IQGAP1 (from UniProt P46940 1-1657) was tested, and the binding [1] was “binds” and the binding [2] was “no binding”.

These are yes or no findings as the source states them, for the method shown. In cells and extracts the contact can be indirect. A yes stands for co-enrichment or nearness to the bait. Other partners may have been found. For some assays here: No binding means not detected with the bait.
